From PubChem BioAssay AID528 (NMMLSC, 2006)
Fewer than 10 of roughly 24,000 compounds were called active. Inconclusive results, whose numbers are uncertain, are shown with a selection of clear calls.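 The calls were made as follows: active = fluorescent ligand binding to cells raised by more than 40% of the manganese-induced maximum; inconclusive = compound's own fluorescence above 85% of the ligand control signal; inactive = the rest.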

The chains behind the UniProt entries cited, without tags or fusion partners.
UniProt P13612, whole entry, looked up: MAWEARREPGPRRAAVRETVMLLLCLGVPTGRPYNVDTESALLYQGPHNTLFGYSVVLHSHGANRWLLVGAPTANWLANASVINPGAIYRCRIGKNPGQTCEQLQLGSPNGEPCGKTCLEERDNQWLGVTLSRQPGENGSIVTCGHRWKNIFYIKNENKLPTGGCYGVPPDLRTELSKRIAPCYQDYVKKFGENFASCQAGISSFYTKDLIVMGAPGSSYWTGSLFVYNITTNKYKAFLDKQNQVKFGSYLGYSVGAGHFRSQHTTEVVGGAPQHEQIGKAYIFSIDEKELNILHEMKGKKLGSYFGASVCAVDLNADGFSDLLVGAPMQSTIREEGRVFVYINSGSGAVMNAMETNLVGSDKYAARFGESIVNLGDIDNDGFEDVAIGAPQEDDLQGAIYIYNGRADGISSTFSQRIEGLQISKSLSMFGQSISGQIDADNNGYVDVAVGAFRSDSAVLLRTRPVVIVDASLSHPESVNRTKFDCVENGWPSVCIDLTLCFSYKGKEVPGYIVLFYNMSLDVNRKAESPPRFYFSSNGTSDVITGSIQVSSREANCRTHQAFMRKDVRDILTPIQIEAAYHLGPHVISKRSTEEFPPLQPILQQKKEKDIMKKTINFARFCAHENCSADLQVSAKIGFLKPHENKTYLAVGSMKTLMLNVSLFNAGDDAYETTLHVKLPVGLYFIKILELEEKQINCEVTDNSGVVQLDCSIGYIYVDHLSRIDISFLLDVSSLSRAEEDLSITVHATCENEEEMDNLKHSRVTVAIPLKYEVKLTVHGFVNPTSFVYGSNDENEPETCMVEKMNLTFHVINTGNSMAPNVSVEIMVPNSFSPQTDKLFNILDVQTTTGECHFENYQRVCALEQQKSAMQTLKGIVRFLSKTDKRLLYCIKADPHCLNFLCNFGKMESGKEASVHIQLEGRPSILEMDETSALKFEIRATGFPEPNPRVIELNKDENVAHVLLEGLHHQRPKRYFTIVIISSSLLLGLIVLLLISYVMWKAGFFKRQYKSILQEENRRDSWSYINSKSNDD

What follows are compounds tested against Integrin alpha-4 (Homo sapiens) (UniProt P13612) (assay: enhancers of LDV-FITC binding to VLA-4 integrin, primary screen, Jurkat cells, flow cytometry (AID 528;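 as to activation: 0% = ligand binding without compound and 100% = manganese-stimulated maximal binding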)). Settings: hits give high values, screened at 10 µM (by protocol).
With `COC(=O)c1[nH]c(C)c(/C(O)=C2\C(=O)C(=O)N(CCN3CCOCC3)C2c2cccs2)c1C` (stereo not drawn) the activation was inactive: -4%.
For `COC(=O)c1cc2sc(Cl)cc2n1CC(=O)N1CCCc2ccccc21`, the activation was “inconclusive”.
For `COc1ncnc2c1N=C1CC(C)(C)CC(N)=C1S2`, the activation was “inconclusive”.
For `CCOC(=O)N1CCC(NC(=O)CSc2cc(=O)n(C)c3ccc(Cl)cc23)CC1`, the activation was inactive: 3%.
With `O=S(=O)(Cc1ccccc1)/C1=C(\N2CCOCC2)CCCCCC1` the activation was “inconclusive”.
`Cc1cc(NC(=O)c2cccc(COc3ccc(Br)cc3)c2)no1` was tested, and the activation was “inconclusive”.
With `COC(=O)c1[nH]c2ccc(C)cc2c1NC(=O)CN1CCCC(C)(C)C1` the activation was “inconclusive”.
For `C=CCNc1ncnc2c1[nH]c1ccc(Cl)cc12`, the activation was “inconclusive”.
For `Cc1cccc(C)c1NS(=O)(=O)c1c(C)[nH]c(=O)[nH]c1=O`, the activation was inactive: 2%.
`CC(C)c1[nH]nc2c1C1(CCN(Cc3ccccc3)CC1)C(C#N)=C(N)O2` was tested, and the activation was “inconclusive”.
In the case of `CCN1CCN(C(=O)C2CCN(Cc3nc(-c4ccc(Cl)cc4)oc3C)CC2)CC1`, the activation is reported as “inconclusive”.
For `CC(C)=CC(=O)OCC(=O)NC(=O)NC(C)(C)C`, the activation was inactive: 3.5%.
For `CCOc1ccc(C2N(c3ccc(OC)cc3)C(=O)C3CCCN32)cc1OC` (stereo not drawn), the activation was inactive: -3%.
`COc1cc2c(cc1OC)CN(S(C)(=O)=O)CC2` was tested, and the activation was inactive: -1%.
For `CCCCNC(=O)CC1N=C2c3ccccc3N=C(SCC(=O)Nc3ccccc3OC)N2C1=O` (stereo not drawn), the activation was “inconclusive”.
For `O=C(C1CCN(S(=O)(=O)c2cccc3cccnc23)CC1)N1CCn2c1nc1ccccc12`, the activation was inactive: 6%.
`Cc1cccc(NC(=O)Cn2cnc3ccc(S(=O)(=O)N4CCC(C)CC4)cc3c2=O)n1` was tested, and the activation was “inconclusive”.
In the case of `CC(=O)NCCn1c(SCC(=O)OCc2ccccc2)nc2ccccc2c1=O`, the activation is reported as “inconclusive”.
`N#CCCN1CCN(S(=O)(=O)c2ccc(S(=O)(=O)N3CCCCCC3)cc2)CC1` was tested, and the activation was “inconclusive”.
In the case of `COc1ccccc1N1CCN(C(CNS(=O)(=O)c2cc(F)ccc2F)c2cccnc2)CC1` (stereo not drawn), the activation is reported as “inconclusive”.
With `Cc1nc2sc(C(c3ccco3)N3CCN(c4cccc(Cl)c4)CC3)c(O)n2n1` (stereo not drawn) the activation was “inconclusive”.
For `COc1ccc(N2CCN(C(c3cccc(OC)c3OC)c3nnnn3C3CCCC3)CC2)cc1` (stereo not drawn), the activation was “inconclusive”.
`Cc1c2cn[nH]c(=O)c2c(C)n1Cc1ccc(F)cc1` was tested, and the activation was “inconclusive”.
With `Cc1nc2ccc(S(=O)(=O)NCC(=O)N3CCC(C)CC3)cc2s1` the activation was inactive: -3%.
In the case of `Cc1ccc(N(CC(=O)Nc2ccc3c(c2)OCCO3)S(=O)(=O)c2c(C)n[nH]c2C)cc1`, the activation is reported as “inconclusive”.
In the case of `CCOc1cc2c(cc1OCC)C(c1cc(OC)c(O)c(OC)c1)NCC2` (stereo not drawn), the activation is reported as inactive: 7.5%.
With `CN(C(=O)C1CCCO1)c1nnc(-c2ccncc2)s1` (stereo not drawn) the activation was “inconclusive”.
With `CCN(CC)c1ccc(NC(=O)C2CCCN(S(=O)(=O)c3cnc[nH]3)C2)c(C)c1` (stereo not drawn) the activation was inactive: -3%.
`CN1CCN(c2ccccc2NC(=O)C(Cc2ccccc2)n2cccc2)CC1` (stereo not drawn) was tested, and the activation was inactive: 3%.
In the case of `C=CCSc1nnc(NC(=O)c2ccc(S(=O)(=O)NCC3CCCO3)cc2)s1` (stereo not drawn), the activation is reported as inactive: 3%.
In the case of `CC1(C)CC(=O)C2=C(C1)N(CC1CCCO1)C(=O)C2(O)C(F)(F)F` (stereo not drawn), the activation is reported as “inconclusive”.
In the case of `Cc1ccc2oc(=O)c3cnn(CC(=O)NCCCOC(C)C)c3c2c1`, the activation is reported as “inconclusive”.
`CCCCNC(=O)CSc1nc2ccccc2c(=O)n1C1CCCC1` was tested, and the activation was “inconclusive”.
In the case of `Cc1nnc2ccc(N3CCN(c4ccccn4)CC3)nn12`, the activation is reported as “inconclusive”.
For `COc1cccc(C2C(C(=O)c3ccc(C)o3)=C(O)C(=O)N2CCCN(C)C)c1` (stereo not drawn), the activation was inactive: 4.5%.
For `O=C(NCCN1C(=O)C2C3C=CC(C3)C2C1=O)Nc1ccccc1` (stereo not drawn), the activation was “inconclusive”.
In the case of `O=Nc1c2nc3ccccc3n(O)c-2c2ccccc12`, the activation is reported as “inconclusive”.
In the case of `CCCC(=O)Nc1ccc2oc(-c3cccnc3)nc2c1`, the activation is reported as inactive: -1.5%.
`CCCn1cnc2c(cnn2-c2ccc(F)cc2)c1=O` was tested, and the activation was inactive: 0.5%.
`Cc1cccc(C)c1Nc1nc2ccccc2o1` was tested, and the activation was “inconclusive”.
In the case of `Cc1c(C(=O)NCc2ccccn2)sc2nc(-c3ccc(F)cc3)cn12`, the activation is reported as inactive: -1.7%.
`CCOC(=O)CC1Sc2ccccc2NC1=O` (stereo not drawn) was tested, and the activation was “inconclusive”.
For `COc1ccc(C)cc1NC(=O)CN(Cc1nnc(-c2ccc(Cl)cc2)o1)C1CCCC1`, the activation was “inconclusive”.
`O=C(O)CCC(=O)Nc1ccc(N2CCOCC2)cc1` was tested, and the activation was inactive: 2%.
In the case of `CCN(CC)CCNC(=O)C1c2ccccc2C(=O)N(C)C1c1cn(C)c2ccccc12` (stereo not drawn), the activation is reported as “inconclusive”.
With `O=C(NCC1CCCO1)C1CCN(S(=O)(=O)c2cccnc2)CC1` (stereo not drawn) the activation was “inconclusive”.
For `O=C(NCCN1CCN(c2ccccc2)CC1)C1CCCN(S(=O)(=O)c2cnc[nH]2)C1` (stereo not drawn), the activation was “inconclusive”.
For `O=C(C(Cc1ccccc1)n1cccc1)N1CCN(c2ncccn2)CC1` (stereo not drawn), the activation was “inconclusive”.
For `Cc1nnc(N2C(=O)C(O)=C(C(=O)c3ccco3)C2c2ccc(F)cc2)s1` (stereo not drawn), the activation was inactive: -8.7%.
With `COc1ccc(N(CC(=O)O)S(=O)(=O)c2cccnc2)cc1` the activation was “inconclusive”.
With `CCCN1Cc2cccc(C(=O)Nc3ccc4c(c3)OCO4)c2C1=O` the activation was “inconclusive”.
In the case of `CCC(C)NC(=O)Cn1cc2c(n1)CCC(C)C2` (stereo not drawn), the activation is reported as “inconclusive”.
For `COc1ccc2sc(NC(=O)c3ccco3)nc2c1`, the activation was “inconclusive”.
With `CCn1c(CCNC(=O)c2cccs2)nnc1SCC(=O)c1ccc(OC)cc1` the activation was inactive: 4.5%.
With `CCc1nc2sc3c(c2c(=O)o1)CCCC3` the activation was “inconclusive”.
`Cc1ccccc1-c1nc(CS(=O)(=O)CC(=O)NCCCN2C(C)CCCC2C)c(C)o1` (stereo not drawn) was tested, and the activation was “inconclusive”.
`COc1ccc2nc3oc(C(=O)N4CCN(c5ccccc5F)CC4)cc3cc2c1` was tested, and the activation was “inconclusive”.
With `Nc1nonc1-c1nc2ccccc2n1CCC(=O)O` the activation was “inconclusive”.
For `Cn1c(=O)[nH]c(=O)c2c1nc(N1CCNCC1)n2CCOc1ccccc1`, the activation was “inconclusive”.
`O=C(CN1C(=O)C2C3C=CC(C3)C2C1=O)NCCc1ccccc1Cl` (stereo not drawn) was tested, and the activation was “inconclusive”.
With `CCCCN(C)CCCNC(=O)c1ccc2c(c1)NC(=O)C(N1CCOCC1)S2` (stereo not drawn) the activation was “inconclusive”.
In the case of `CCOC(=O)c1ccc(N2CSC3=C(C#N)C(c4ccc(OC)cc4OC)CC(=O)N3C2)cc1` (stereo not drawn), the activation is reported as “inconclusive”.
`N#Cc1c(NC(=O)c2ccc(Br)o2)n(-c2ccccc2)c2nc3ccccc3nc12` was tested, and the activation was “inconclusive”.
For `CC(=O)CC1OC(=O)C(Br)=C1NCc1ccccc1` (stereo not drawn), the activation was “inconclusive”.
For `Cc1ccc2c(c1C)NC(C(=O)O)C1CC=CC21` (stereo not drawn), the activation was “inconclusive”.
`O=C(C1CC1)N1CCc2cc(Br)cc(S(=O)(=O)N3CCCCCC3)c21` was tested, and the activation was “inconclusive”.
In the case of `Cc1ccc(S(=O)(=O)n2nc(OC(=O)c3ccco3)cc2N)cc1`, the activation is reported as “inconclusive”.
For `Cc1cc(=O)[nH]c(SCc2nc3ccccc3n2Cc2ccccc2)n1`, the activation was “inconclusive”.
`CCOc1ccc(NC(=O)c2nnn(CC(=O)Nc3ccccc3OCC)c2N)cc1` was tested, and the activation was “inconclusive”.
`C=CCn1c(CCCNC(=O)CCC)nc2ccccc21` was tested, and the activation was inactive: 4%.
For `CN1C(=O)CSc2ccc(NC(=O)N3CCc4ccccc43)cc21`, the activation was “inconclusive”.
`CCOC(=O)N1CCN(C(=O)c2ccc3c(c2)NC(=O)C(N2CCOCC2)S3)CC1` (stereo not drawn) was tested, and the activation was “inconclusive”.
`COc1cc(C2NC(C(=O)O)CS2)ccc1OCc1ccccc1C#N` (stereo not drawn) was tested, and the activation was inactive: 4%.
`Nc1cccc2c1C(=O)N(c1ccccc1)C2=O` was tested, and the activation was inactive: -2%.
For `CCOC(=O)c1ccc(NC(=O)N2CCN(Cc3cccc(F)c3)CC2)cc1`, the activation was inactive: -6%.
`CC1CCN(S(=O)(=O)c2ccc3ncn(CC(=O)N(C)Cc4ccccc4)c(=O)c3c2)CC1` was tested, and the activation was “inconclusive”.
With `CCn1nc(C)c(/C=C2\CCCC3=C2OC(N)=C(C#N)C3c2c(C)nn(CC)c2C)c1C` (stereo not drawn) the activation was “inconclusive”.
`CCOC(=O)N1CCN(S(=O)(=O)c2cc3c(cc2C)NC(=O)CO3)CC1` was tested, and the activation was inactive: -8%.
With `COC(=O)c1c(N)n(-c2cc(OC)cc(OC)c2)c2nc3ccccc3nc12` the activation was “inconclusive”.
`Cc1ccc(C)c(N2CCN(C(=O)CN3C(=O)c4ccccc4C3=O)CC2)c1` was tested, and the activation was “inconclusive”.
With `CC1=NC(Nc2nc(C)c3ccccc3n2)=NC(C)(C)C1` the activation was “inconclusive”.
`COCCn1c(=O)[nH]c2cc(C(=O)NCCN3CCN(c4ccccc4F)CC3)ccc2c1=O` was tested, and the activation was “inconclusive”.
`CN(CCNC(=O)CCNC(=O)Cn1ccc2ccccc2c1=O)Cc1ccccc1` was tested, and the activation was “inconclusive”.
With `Cn1c(-c2ccc(F)cc2)cnc1SCC(=O)Nc1ccccc1N1CCOCC1` the activation was “inconclusive”.
With `CCOC(=O)CN(Cc1ccccc1)S(=O)(=O)c1ccc(NC(C)=O)cc1` the activation was “inconclusive”.
`Cc1ccc(C)c(N2CCN(C(=O)COc3cc(=O)n(C)c4ccccc34)CC2)c1` was tested, and the activation was “inconclusive”.
For `CN(CC(=O)N1CCc2ccccc2C1)S(=O)(=O)c1ccc2c(c1)c(=O)n(C)c(=O)n2C`, the activation was “inconclusive”.
In the case of `COc1cc2c(C(=O)N3CCN(C4CCCCC4)CC3)cn(CC(C)C)c(=O)c2cc1OC`, the activation is reported as “inconclusive”.
In the case of `CCOc1ccc(NC(=O)Cn2nnc(C(=O)NCc3ccccc3OC)c2N)cc1`, the activation is reported as “inconclusive”.
For `CCOC(=O)Nc1ccc(C(N)=O)cc1`, the activation was “inconclusive”.
With `CC1CCOC2(O1)C(=O)N(CN1CCN(c3ccccc3F)CC1)c1ccccc12` (stereo not drawn) the activation was “inconclusive”.
`Cn1c(CN2CCOCC2)nnc1SCC(=O)NCCc1ccccc1` was tested, and the activation was inactive: -3.5%.
For `Cc1c2c(nc3c(C(=O)NC4CCCCC4C)cnn13)CCCC2` (stereo not drawn), the activation was “inconclusive”.
In the case of `O=C(NCc1cccs1)c1cc2c(s1)CCCC2`, the activation is reported as “inconclusive”.
For `CCOc1ccc(CNC(=O)C2CCC(=O)N2C2CCCC2)cc1OC` (stereo not drawn), the activation was inactive: -7%.
With `Cc1cc(C)c2c(C)nn(C3CCCCC3)c2n1` the activation was “inconclusive”.
`COc1ccc2c(c1)CCc1c(C(=O)NCCN3CCOCC3)noc1-2` was tested, and the activation was “inconclusive”.
With `CC1CCC(NC(=O)c2ccc(CS(=O)(=O)Cc3ccccc3F)o2)CC1` (stereo not drawn) the activation was “inconclusive”.
